{
  "source": "PubChem BioAssay AID602313",
  "about": "(National Center for Advancing Translational Sciences (NCATS), 2012)",
  "note": "Hit rate of the full screen: of about 390,000 compounds, about 760 (0.19%) were called active. The inconclusive results got no clear call from the source; some entries with a clear call stand among them for comparison. Calls follow the shape of the dose curve; as a rule, active = well fitted inhibition curve with a large enough effect; inconclusive = small, poorly fitted or top-dose-only effect; inactive = flat fitted curve, though single readings scatter. A potency beside an inconclusive call is a rough fit, not a confirmed value. Potency is read from the fitted curve at half-maximal effect.",
  "data": [
    {"test": "qHTS for Inhibitors of Vif-A3F Interactions: qHTS; also: nearly all actives have a fitted effect of over 65% in size", "conditions": "HeLa A3F-eYFP + Vif (tagged APOBEC3F with the HIV-1 protein that degrades it), YFP fluorescence increase; series mostly up to 46.1 µM", "how_it_was_run": "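HeLa cells stably expressing A3F-eYFP plus Vif, plated and incubated overnight at 37 deg C, then exposed to compounds overnight at 37 deg C. Blocked degradation read as raised yellow fluorescence (Ex 488/Em 500-530).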", "values": [
      {"smiles": "CC(=O)c1c(NC(=O)c2ccccc2)[nH]c(-c2ccccc2)nc1=S", "Potency": "inconclusive: 11.2 µM [inhibitor, partial curve, poor fit]"},
      {"smiles": "COc1ccc2nc3ccccc3nc2c1NC(=O)c1ccc(Cl)cc1", "Potency": "active: 11.2 µM"},
      {"smiles": "Cc1ccc(-c2[nH]ncc2C(=O)c2ccc(Br)cc2)c(O)c1", "Potency": "inconclusive: 6.31 µM [inhibitor, partial curve, poor fit]"},
      {"smiles": "CCCCn1c(-c2cccc(Br)c2)nc2cc3[nH]c(=O)c(C(C)C)nc3cc21", "Potency": "inconclusive: 35.5 µM [inhibitor, single point]"},
      {"smiles": "Cc1cc(C)cc(NC(=O)CN(C)S(=O)(=O)c2ccc3[nH]c4c(c3c2)CCCC4)c1", "Potency": "inactive"},
      {"smiles": "N#C/C(=C\\c1ccc(-c2ccc(F)cc2F)o1)c1nc2ccccc2[nH]1", "Potency": "active: 11.2 µM"},
      {"smiles": "COc1ccc(OC)c(S(=O)(=O)Nc2cc3c(C(C)=O)c(C)oc3c3ccccc23)c1", "Potency": "inconclusive: 31.6 µM [inhibitor, single point]"},
      {"smiles": "COc1ccc(-c2nnc(SCC(=O)Nc3ccc(C(C)=O)cc3)nc2-c2ccc(OC)cc2)cc1", "Potency": "inconclusive: 35.5 µM [inhibitor, single point]"},
      {"smiles": "CCOC(=O)c1ccc(S(=O)(=O)N2CCC(C(=O)OCC)CC2)cc1", "Potency": "inactive"},
      {"smiles": "NC(=O)c1ccc(NC(=O)CSc2nnc(-c3cccnc3)n2Cc2ccco2)cc1", "Potency": "inconclusive: 35.5 µM [inhibitor, single point]"},
      {"smiles": "NC(=O)c1nsc(C(=O)N(Cc2ccc(F)cc2)C(C(=O)NC2CCCC2)c2ccco2)c1N", "note": "(stereo not drawn)", "Potency": "inconclusive: 10 µM [inhibitor, partial curve, poor fit]"},
      {"smiles": "CN(C)CCC(=O)c1ccc2c(c1)OCO2", "Potency": "inactive"},
      {"smiles": "COc1ccc(C(=O)NNC(=O)CCn2nnc(-c3ccc(Cl)cc3)n2)cc1OC", "Potency": "inconclusive: 35.5 µM [inhibitor, single point]"},
      {"smiles": "O=C(NC(=S)N1CCN(C/C=C/c2ccccc2)CC1)c1ccc(F)cc1", "Potency": "inconclusive: 31.6 µM [inhibitor, partial curve, poor fit]"},
      {"smiles": "CCOc1ccccc1NC(=O)C(C)Sc1nc(-c2ccccc2)c(C#N)c(=O)[nH]1", "note": "(stereo not drawn)", "Potency": "inactive"},
      {"smiles": "CC(C)(C)C(=O)Nc1ccccc1N1CCN(c2ccc(F)cc2)CC1", "Potency": "inconclusive: 6.31 µM [inhibitor, single point]"},
      {"smiles": "O=C(Cn1ncc2c3ccccc3n(Cc3ccc(Cl)cc3)c2c1=O)NCc1cccs1", "Potency": "inconclusive: 22.4 µM [inhibitor, single point]"},
      {"smiles": "COc1ccc2c(c1)CCc1c(C(=O)N(C)c3ccccc3)noc1-2", "Potency": "inactive"},
      {"smiles": "O=C/C(=C\\Nc1ccccn1)c1nc2ccccc2o1", "Potency": "active: 28.2 µM"},
      {"smiles": "FC(F)(F)c1cccc(CNC2c3ccccc3-c3ccccc32)c1", "Potency": "inconclusive: 25.1 µM [inhibitor, single point]"},
      {"smiles": "CCCn1nnc(NC(=O)Cc2ccc(Cl)cc2)n1", "Potency": "inactive"},
      {"smiles": "O=C(O)CCCCCN1C(=O)/C(=C/c2cn(-c3ccccc3)nc2-c2cccs2)SC1=S", "Potency": "inconclusive: 35.5 µM [inhibitor, single point]"},
      {"smiles": "COc1ccc(CCN2CNc3c(c(=O)n(C)c(=O)n3C)C2)cc1OC", "Potency": "inconclusive: 6.31 µM [inhibitor, single point]"},
      {"smiles": "CCn1c(=O)cc(OCC(=O)NCc2ccccc2Cl)c2ccccc21", "Potency": "inactive"},
      {"smiles": "CCCN(CC(=O)NC(=O)NC1CCCCC1)CC(=O)Nc1cc(Cl)ccc1Cl", "Potency": "inconclusive: 3.16 µM [inhibitor, partial curve, poor fit]"},
      {"smiles": "CCN(Cc1ccccc1)C(=O)CC(=O)N(CC)Cc1ccccc1", "Potency": "inconclusive: 3.55 µM [inhibitor, single point]"},
      {"smiles": "CCC(=O)OCc1cnc(C)c2oc(=O)c(C(=O)Nc3ccccc3C(F)(F)F)cc12", "Potency": "inconclusive: 2.82 µM [inhibitor, full curve, poor fit]"},
      {"smiles": "COc1cc(C#Cc2ccc3cc(CCCO)oc(=O)c3c2)cc(OC)c1", "Potency": "inconclusive: 35.5 µM [inhibitor, single point]"},
      {"smiles": "CCc1ccc2nc(N(CCCN(C)C)C(=O)c3ccc(S(=O)(=O)N(C)C4CCCCC4)cc3)sc2c1", "Potency": "inconclusive: 35.5 µM [inhibitor, single point]"},
      {"smiles": "C/C(=N\\NC(=O)CCc1ccccc1)C1C(=O)c2ccccc2C1=O", "Potency": "inconclusive: 6.31 µM [inhibitor, single point]"},
      {"smiles": "Cc1ccc(NC(=O)c2cccc(Oc3ccc([N+](=O)[O-])cc3)c2)c(C(=O)O)c1", "Potency": "inactive"},
      {"smiles": "CCc1ccc(N2C(=O)Cc3c2nc(N)c(C#N)c3N)cc1", "Potency": "inactive"},
      {"smiles": "Cc1ccc(-n2c(-c3nn(C)c(C)c3Cl)n[nH]c2=S)cc1", "Potency": "inactive"},
      {"smiles": "CCCOc1ccc(C(=O)c2ccccc2C(=O)OC2CCOC2=O)cc1OCCC", "note": "(stereo not drawn)", "Potency": "inconclusive: 8.91 µM [inhibitor, partial curve, poor fit]"},
      {"smiles": "CC1(C)CC(=O)C(=Cc2cn(CCC#N)nc2-c2ccc(F)cc2)C(=O)C1", "Potency": "inconclusive: 22.4 µM [inhibitor, single point]"},
      {"smiles": "O=C(CCN1C(=O)[C@@H]2Cc3ccccc3CN2C1=O)NCc1ccccc1", "Potency": "inconclusive: 35.5 µM [inhibitor, single point]"},
      {"smiles": "COC(=O)Cc1ccc(NC(=S)NCCSc2ccc(C)cc2)cc1", "Potency": "inconclusive: 20 µM [inhibitor, single point]"},
      {"smiles": "CCOC(=O)C1(Cc2cccc(OC)c2)CCN(Cc2cccc(O)c2)CC1", "Potency": "inconclusive: 7.08 µM [inhibitor, partial curve, poor fit]"},
      {"smiles": "CCOc1ccc(C(=O)NCC(=O)N2CCN(c3ccccc3O)CC2)cc1", "Potency": "inconclusive: 2 µM [inhibitor, partial curve, poor fit]"},
      {"smiles": "O=S(=O)(Nc1ccc(S(=O)(=O)N2CCCC2)cc1)c1ccc(F)cc1F", "Potency": "inconclusive: 5.62 µM [inhibitor, single point]"},
      {"smiles": "CC(=O)N1N=C(c2cccc(O)c2)CC1c1cccs1", "note": "(stereo not drawn)", "Potency": "inactive"},
      {"smiles": "CN1CCc2c(sc(NC(=O)c3cc(Cl)sc3Cl)c2C(N)=O)C1", "Potency": "inconclusive: 28.2 µM [inhibitor, single point]"},
      {"smiles": "CCOC(=O)C(=CNNc1ccccc1)C(=O)OCC", "Potency": "inactive"},
      {"smiles": "CCOC(=O)N1CCC(NC(=O)C2=CCN(S(=O)(=O)c3ccc(F)cc3)CC2)CC1", "Potency": "inconclusive: 10 µM [inhibitor, partial curve]"},
      {"smiles": "COc1ccc(C)cc1NC(=O)C1CC(=O)N(CCc2ccccc2)C1", "note": "(stereo not drawn)", "Potency": "inactive"},
      {"smiles": "CCCN(CCC)c1cc(Cl)nc(N)n1", "Potency": "inconclusive: 3.55 µM [inhibitor, single point]"},
      {"smiles": "CCOc1cccc2sc(=NC(=O)c3ccco3)n(CC(=O)OC)c12", "Potency": "inconclusive: 8.91 µM [inhibitor, partial curve]"},
      {"smiles": "O=C(Nc1cccc(-c2nc3ncccc3o2)c1)c1ccc2c(c1)OCO2", "Potency": "inactive"},
      {"smiles": "Cc1ccc(O)c(C(=O)c2cc(C#N)c(=O)n(-c3c(C)n(C)n(-c4ccccc4)c3=O)c2)c1", "Potency": "inconclusive: 35.5 µM [inhibitor, single point]"},
      {"smiles": "O=C(NCCCn1ccnc1)c1cccc(Cl)c1", "Potency": "inconclusive: 10 µM [inhibitor, partial curve, poor fit]"},
      {"smiles": "N#C/C(=C(/O)c1ccc([N+](=O)[O-])o1)c1nc2ccccc2[nH]1", "Potency": "inconclusive: 7.08 µM [inhibitor, partial curve, poor fit]"},
      {"smiles": "Cc1ccnc(N2C(=O)c3cccc4c([N+](=O)[O-])ccc(c34)C2=O)c1", "Potency": "inconclusive: 3.55 µM [inhibitor, partial curve, poor fit]"},
      {"smiles": "CN1CCN(Cc2cc(=O)oc3ccc(Cl)cc23)CC1", "Potency": "inactive"},
      {"smiles": "CCCCn1c(Nc2ccccc2)nc2ccccc21", "Potency": "inconclusive: 10 µM [inhibitor, partial curve, poor fit]"},
      {"smiles": "CCCCOc1ccc(C2OC34CCCCC3C(C#N)(C#N)C2(C#N)C(=N)O4)cc1", "note": "(stereo not drawn)", "Potency": "inconclusive: 35.5 µM [inhibitor, single point]"},
      {"smiles": "Cc1nn(C)c(C)c1NC(=O)COc1ccc(Cl)cc1Br", "Potency": "inactive"},
      {"smiles": "O=C(COc1ccccc1)NC(=S)Nc1cccc2c(O)cccc12", "Potency": "inconclusive: 8.91 µM [inhibitor, partial curve]"},
      {"smiles": "O=C(c1ccc(NS(=O)(=O)c2ccccc2)cc1)N1CCCC1", "Potency": "inactive"},
      {"smiles": "CCc1ccc(NC(=O)CSc2ccc(-c3ccccn3)nn2)cc1", "Potency": "inconclusive: 22.4 µM [inhibitor, single point]"},
      {"smiles": "O=C(NC(=S)NC1CCCc2ccccc21)c1ccco1", "note": "(stereo not drawn)", "Potency": "inconclusive: 35.5 µM [inhibitor, single point]"},
      {"smiles": "O=C(Nc1ccc(S(=O)(=O)Nc2ncccn2)cc1)c1ccccc1", "Potency": "inconclusive: 35.5 µM [inhibitor, single point]"},
      {"smiles": "COc1ccc(-c2nnc(SCC(=O)Nc3cc(C)on3)o2)cc1", "Potency": "inconclusive: 35.5 µM [inhibitor, single point]"},
      {"smiles": "CC(C)Oc1ccc(C(=O)NC2CCN(Cc3ccccc3)CC2)cc1", "Potency": "inactive"},
      {"smiles": "COc1cc(CC(=O)Nc2sccc2C(N)=O)cc(OC)c1OC", "Potency": "inconclusive: 2.51 µM [inhibitor, partial curve, poor fit]"},
      {"smiles": "CCC(=O)N1CCc2cc(S(=O)(=O)NCCC(=O)Nc3cc(C)ccc3OC)ccc21", "Potency": "inactive"},
      {"smiles": "CC(=O)c1ccc(Nc2nc3c(S(=O)(=O)c4ccccc4)nnn3c3ccc(Cl)cc23)cc1", "Potency": "inactive"},
      {"smiles": "Cc1oc(-c2cccs2)nc1CN1CCC(c2ccccc2)CC1", "Potency": "inconclusive: 14.1 µM [inhibitor, single point]"},
      {"smiles": "O=C(O)c1csc(N/N=C/c2ccc(Br)cc2)n1", "Potency": "inconclusive: 12.6 µM [inhibitor, single point]"}
    ]}
  ]
}
